Test results published in PMC5123055.
No constants are given. Whether binding was seen depends on the method and setting. Binding seen in cells or lysates may run through a third protein. Some binding calls cover weakened binding; strength is not graded here.

Protein sequences, listed by entry. Tags and fused reporters are not part of them. Lines headed by an entry give the natural chain unless they say otherwise; changes in a name come on top.
UniProt P0CX82: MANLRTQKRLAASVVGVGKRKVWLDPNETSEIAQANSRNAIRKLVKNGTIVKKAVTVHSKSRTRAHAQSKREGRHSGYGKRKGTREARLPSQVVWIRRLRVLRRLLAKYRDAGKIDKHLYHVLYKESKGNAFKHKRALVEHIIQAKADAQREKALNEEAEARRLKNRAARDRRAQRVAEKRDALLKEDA
UniProt P04650: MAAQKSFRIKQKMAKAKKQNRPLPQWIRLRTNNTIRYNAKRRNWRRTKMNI
UniProt P11484: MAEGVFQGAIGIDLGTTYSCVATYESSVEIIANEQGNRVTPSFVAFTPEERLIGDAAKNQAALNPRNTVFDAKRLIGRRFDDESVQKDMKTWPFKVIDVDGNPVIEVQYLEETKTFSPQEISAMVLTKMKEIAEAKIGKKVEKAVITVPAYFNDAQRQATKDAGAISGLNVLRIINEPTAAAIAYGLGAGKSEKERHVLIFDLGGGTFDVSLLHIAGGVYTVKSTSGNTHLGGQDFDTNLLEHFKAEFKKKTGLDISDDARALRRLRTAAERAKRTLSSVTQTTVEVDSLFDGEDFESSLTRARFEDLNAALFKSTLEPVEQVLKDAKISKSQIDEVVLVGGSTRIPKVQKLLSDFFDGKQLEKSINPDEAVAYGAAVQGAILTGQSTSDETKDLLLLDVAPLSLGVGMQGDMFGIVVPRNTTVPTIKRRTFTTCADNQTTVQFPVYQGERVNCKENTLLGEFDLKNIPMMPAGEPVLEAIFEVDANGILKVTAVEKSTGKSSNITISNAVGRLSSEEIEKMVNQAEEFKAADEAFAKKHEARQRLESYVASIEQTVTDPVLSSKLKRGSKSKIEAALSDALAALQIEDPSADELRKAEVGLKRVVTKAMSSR

Legend:
[1] = molecular target: T1, Sse1 (S. cerevisiae (endogenous in yeast extract)) (UniProt P32589); assay: cross-linking; BS3 on isolated ribosomes of the Ssb1* strain (legend; the text says cell extract); sample separated into cytosolic supernatant and ribosomal pellet on a low-salt sucrose cushion; immunoblot with αSsb
T1 sequence: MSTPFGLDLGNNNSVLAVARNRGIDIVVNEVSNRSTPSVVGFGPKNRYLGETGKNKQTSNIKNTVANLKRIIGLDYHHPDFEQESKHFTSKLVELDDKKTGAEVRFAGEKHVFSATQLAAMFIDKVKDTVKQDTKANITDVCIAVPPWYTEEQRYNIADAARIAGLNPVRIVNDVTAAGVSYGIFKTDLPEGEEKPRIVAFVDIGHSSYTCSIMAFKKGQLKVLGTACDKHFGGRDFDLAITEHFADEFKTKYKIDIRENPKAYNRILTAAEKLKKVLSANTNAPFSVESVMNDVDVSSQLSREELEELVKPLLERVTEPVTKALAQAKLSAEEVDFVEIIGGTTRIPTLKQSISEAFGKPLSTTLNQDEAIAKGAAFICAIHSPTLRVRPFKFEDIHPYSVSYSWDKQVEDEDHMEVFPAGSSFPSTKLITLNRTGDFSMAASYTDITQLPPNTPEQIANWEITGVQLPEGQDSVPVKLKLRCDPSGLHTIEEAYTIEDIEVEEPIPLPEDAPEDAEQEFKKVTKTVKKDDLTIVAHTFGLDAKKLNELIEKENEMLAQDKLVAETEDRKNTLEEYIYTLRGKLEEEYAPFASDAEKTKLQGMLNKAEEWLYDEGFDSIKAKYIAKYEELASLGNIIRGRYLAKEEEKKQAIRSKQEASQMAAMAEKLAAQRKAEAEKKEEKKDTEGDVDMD

[2] = molecular target: Rpl19 (S. cerevisiae (endogenous in yeast extract)) (UniProt P0CX82); assay: cross-linking; 1.2 mM BS3, 20 min, 21 °C, in total cell extract (20 mM Hepes/KOH pH 7.4, 80 mM potassium acetate, 2 mM magnesium acetate); ribosomes pelleted; immunoblots with antibodies against ribosomal proteins; compared with a Δssb1Δssb2 extract
[3] = molecular target: Rpl39 (S. cerevisiae (endogenous in yeast extract)) (UniProt P04650); assay: as above
[4] = molecular target: T2, Rpl35 (S. cerevisiae (endogenous in yeast extract)) (UniProt P0CX84); assay: as above
T2 sequence: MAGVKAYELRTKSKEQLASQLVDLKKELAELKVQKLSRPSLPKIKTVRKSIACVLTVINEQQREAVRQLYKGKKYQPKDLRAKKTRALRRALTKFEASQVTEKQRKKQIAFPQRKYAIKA

Measured: binding

Ssb1-A577K (Ssb1*) (from UniProt P11484 1-613)
binds: all assays above
